According to PubChem BioAssay AID504467 (National Center for Advancing Translational Sciences (NCATS), 2011):
Screen size: about 330,000 compounds; about 7,700 (2.3%) were called active. The shares of active, inactive and inconclusive entries below differ from those in the screen. Calls follow the shape of the dose curve; as a rule, active = well fitted inhibition curve with a large enough effect; inconclusive = small, poorly fitted or top-dose-only effect, or effect the other way; inactive = flat fitted curve, though single readings scatter. Potencies beside an inconclusive call are fits to weak or partial responses and may not hold up.

Experiment: qHTS screen for small molecules that inhibit ELG1-dependent DNA repair in human embryonic kidney (HEK293T) cells expressing luciferase-tagged ELG1; also: nearly all actives have a fitted effect of over 55% in size
Details: HEK293T ELG1-luciferase reporter, luminescence, 16 h, DNA damage induced by 5-fluorouridine; activity change, negative = inhibition: at 46.1 µM (top of the series)
How it was run: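 Cells (2,000 per well) received 5-fluorouridine plus test compound or DMSO and were incubated 16 hr at 37 °C, 5% CO2. Luciferase activity was read by luminescence 30 min after ONE-Glo addition; signal suppression marked inhibition of damage-induced ELG1 function.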
% is scaled to controls: 0 for no effect and ±100 for the full control effect; potency is read from the fitted curve at half-maximal effect.

Structure (SMILES) | Potency | activity change, negative = inhibition
CCCCCC(=O)NC(=S)Nc1cccc(-c2nc3ncccc3o2)c1 | inconclusive: 18.3 µM [activator, partial curve] | 
O=C(CSc1nnc(-c2cccs2)n1C1CC1)NC1CCS(=O)(=O)C1 (stereo not given) | inconclusive: 0.103 µM [activator, partial curve, poor fit] | 
Nc1ccc(C(=O)Nc2ccccc2N)cc1 | inconclusive: 16.4 µM [activator, partial curve] | 
COc1ccccc1NC(=O)N(Cc1cc2cc(OC)c(OC)cc2[nH]c1=O)CC1CCCO1 (stereo not given) | inconclusive: 25.9 µM [inhibitor, single point] | 
COc1ccc(-c2nc(-c3ccccc3)c(-c3cc([N+](=O)[O-])ccc3C)[nH]2)cc1OC | active: 10.3 µM | 
COc1cccc(NC(=O)CN(C)C(=O)CNC(=O)c2ccc(Oc3ccccc3)cc2)c1 | inconclusive: 16.4 µM [activator, partial curve] | 
O=C(Nc1nnc(Cc2ccccc2)s1)c1ccco1 | inconclusive: 20.6 µM [activator, partial curve] | 
N#Cc1cc2c(N)c(C(=O)Nc3ccccc3)sc2nc1N | inconclusive: 5.17 µM [activator, single point] | 
Fc1ccc(-n2nnc(-c3cnc4ccccc4c3)n2)cc1 | inconclusive: 0.326 µM [activator, full curve] | 
O=C(c1cc(-c2ccc(Cl)c(Cl)c2)on1)N1CCOCC1 | inconclusive: 5.17 µM [activator, partial curve] | 
COc1ccc(-c2noc(=O)n2Cc2ccc(F)cc2Cl)cc1 |  | inactive: -7.82%
CC(=O)c1cnc(-c2cccc(Cl)c2)s1 | inconclusive: 18.3 µM [activator, partial curve] | 
COc1ccc(C)cc1NC(=O)CCN1CCN(c2ccccc2F)CC1 |  | inactive: -0.188%
Cn1ncc2c(Nc3ccc(Cl)c(Cl)c3)ncnc21 | inconclusive: 23.1 µM [activator, single point] | 
Cc1ccc(-n2nnnc2SCc2ccccn2)cc1C | inconclusive: 16.4 µM [activator, partial curve, poor fit] | 
CCOc1cc(/C=C(\C#N)c2nc3ccccc3[nH]2)ccc1OC(C)C(=O)O (stereo not given) |  | inactive: 12.6%
COC(=O)c1ccc(C(=O)OC)c(NC(=O)CCc2ccc(C)o2)c1 | inconclusive: 18.4 µM [inhibitor, single point] | 
Cc1ccc2nc(-c3ccncc3)c(NC3CCCC3)n2c1 | inconclusive: 20.6 µM [inhibitor, single point] | 
O=C(CN1C(=O)C2CCCCC2C1=O)Nc1cccc(C(F)(F)F)c1 (stereo not given) | inconclusive: 25.9 µM [activator, partial curve, poor fit] | 
COc1ccc(OC)c(N(CC(=O)NCc2ccccn2)S(C)(=O)=O)c1 | inconclusive: 20.6 µM [activator, single point] | 
O=C(/C=C/Nc1ccc([N+](=O)[O-])cc1)c1ccc(Br)cc1 | inconclusive: 8.2 µM [activator, partial curve] | 
COC(=O)c1cc(Cl)c(NC(=O)c2ccc(F)cc2)cc1OC |  | inactive: 1.45%
Cc1cc(C(=O)Cn2cnc3ccccc3c2=O)c(C)n1C1CC1 | inconclusive: 4.47 µM [activator, full curve] | 
O=C(Nc1ccc2c(c1)OCO2)Nc1ccccn1 | inconclusive: 6.51 µM [activator, partial curve] | 
O=C(NC12CC3CC(CC(C3)C1)C2)c1cccc(OC(F)F)c1 | inconclusive: 13 µM [activator, partial curve, poor fit] | 

Structure (SMILES) | Potency | activity change, negative = inhibition
Clc1ccc(SCCCCN2CCNCC2)cc1 | inconclusive: 23.1 µM [activator, partial curve, poor fit] | 
Cc1occc1-c1nnc(SCCNCCO)o1 |  | inactive: -1.73%
Cc1cc(OCc2cc(C(=O)N(C)Cc3nonc3C)no2)cc(C)c1Cl |  | inactive: -0.694%
COc1cc(/C=C(\C#N)c2nc3ccccc3[nH]2)cc(Br)c1OCc1ccc(F)cc1 | inconclusive: 20.6 µM [inhibitor, single point] | 
Nc1nc2nccc(-c3ccccn3)n2n1 | inconclusive: 20.6 µM [activator, partial curve] | 
CC(=O)NCCc1nc2cc(NC(=O)c3ccc(Cl)cc3)ccc2n1C | inconclusive: 3.66 µM [activator, full curve] | 
CCCCNc1c(-c2ccc(OC)c(Sc3ccc(OC)cc3)c2)nc2ccccn12 | inconclusive: 29.1 µM [inhibitor, single point] | 
Cn1c(=O)[nH]c(=O)c2c1nc(N1CCc3ccccc3C1)n2CCSc1nc2ccccc2s1 | inconclusive: 23.1 µM [inhibitor, single point] | 
NC(=O)c1cccnc1Nc1cccc(F)c1 |  | inactive: 20.2%
COc1ccc(NC(=O)CSc2nc3ccccc3c(=O)n2C)cc1 | inconclusive: 10 µM [inhibitor, partial curve] | 
O=C1CSC(=Nc2ccc(F)cc2)N1 |  | inactive: 10.1%
CC(=O)c1ccc(NC(=O)C2CCCN(C(=O)c3ccc(Cl)cc3)C2)cc1 (stereo not given) |  | inactive: 0.977%
COc1cc(/C=C(\NC(=O)c2ccccc2)C(=O)NC(C(=O)O)c2ccccc2)cc(OC)c1OC (stereo not given) |  | inactive: -2.56%
O=C(NC(=S)Nc1cc(Cl)ccc1O)c1cccc(Br)c1 |  | inactive: -17.2%
Nc1cc(=O)[nH]c(SCc2cccc(Cl)c2)n1 | inconclusive: 16.4 µM [activator, partial curve, poor fit] | 
CCn1ncc(NC(=S)Nc2ccc(OC)c(OC)c2)c1C(N)=O |  | inactive: 8.4%
COc1ccc(C(=O)NC(=S)Nc2cccc3cc(O)ccc23)cc1OC | inconclusive: 10.3 µM [inhibitor, partial curve, poor fit] | 
COc1nc(OC)nc(N2CCC(C(=O)NCc3cccs3)CC2)n1 | inconclusive: 16.4 µM [inhibitor, single point] | 
COc1ccc2nc(SCC(=O)NCc3ccc(F)cc3)[nH]c2c1 |  | inactive: -13.5%
CC(=O)c1sc(NC(=O)c2ccc(Br)o2)nc1C | inconclusive: 16.4 µM [activator, partial curve] | 
CC(C)(C)OC(=O)NN=C(c1ccc(O)cc1)c1ccc(O)cc1 |  | inactive: -3.69%
CCCc1nnc(NC(=O)CC(=O)Nc2ccccc2C(=O)O)s1 | inconclusive: 16.4 µM [activator, partial curve, poor fit] | 
C=C(C)CSCc1nc2ccccc2[nH]1 | inconclusive: 20.6 µM [activator, single point] | 
Cn1cc(Cl)c(C(=O)NC2CCCCCC2)n1 | inconclusive: 18.4 µM [activator, partial curve] | 
CCC(C(=O)Nc1nccs1)c1ccccc1 (stereo not given) |  | inactive: -13.5%

Structure (SMILES) | Potency | activity change, negative = inhibition
COc1cccc(/C(O)=C2/C(=O)C(=O)N(CCN(C)C)C2c2ccccn2)c1 (stereo not given) | inconclusive: 23.1 µM [activator, single point] | 
CCOc1cc(/C=C2\SC(=S)N(N3CCOCC3)C2=O)ccc1O |  | inactive: -2.77%
O=C(CC1CCCCC1)NCc1ccc(Cl)cc1 | inconclusive: 35.5 µM [activator, partial curve, poor fit] | 
Cn1c(SCC(=O)Nc2ccc(Cl)cn2)nnc1C1CC1 |  | inactive: -2.46%
CCOc1cccc(-n2nnnc2-c2ccc(OC)cc2)c1 | inconclusive: 6.51 µM [inhibitor, single point] | 
Cc1ccc(C(=O)N/N=C\c2ccccn2)cn1 |  | inactive: -11.7%
COCCCNC(=O)CN(c1cc([N+](=O)[O-])ccc1OC)S(C)(=O)=O |  | inactive: 4.73%
Cc1ccc(S(=O)(=O)Nc2ccc3c(c2)OCCO3)cc1C | inconclusive: 23.1 µM [activator, partial curve] | 
NC(=O)c1nsc(C(=O)N(c2cccc(F)c2)C(C(=O)NCC2CCCO2)c2ccc3ncccc3c2)c1N (stereo not given) |  | inactive: -1.12%
O=S(=O)(Nc1cc(S(=O)(=O)N2CCOCC2)ccc1O)c1ccc2c(c1)OCCCO2 | inconclusive: 0.291 µM [inhibitor, single point] | 
CCc1ccc(NC(=O)c2cc(-c3ccco3)on2)cc1 | inconclusive: 18.4 µM [activator, single point] | 
CC(C)CN(C(=O)CSc1ccc2c(c1)OCCO2)c1c(N)n(CC(C)C)c(=O)[nH]c1=O |  | inactive: 2.4%
Cc1ccc(NC(=O)CN(C)C(=O)c2cc(-c3ccccc3)nn2-c2ccccc2)cc1 |  | inactive: -0.844%
Cc1ccc(C(=O)Nc2sc3c(c2C(=O)O)CCCCC3)o1 |  | inactive: 3.06%
CCOC(=O)Nc1nc(C)c(C(=O)c2ccc(Cl)cc2)s1 |  | inactive: 7.54%
Cc1cc2c3c(c1)C1(SCC(=O)N1c1ccc(F)cc1)C(=O)N3C(C)(C)CC2C (stereo not given) | inconclusive: 32.6 µM [inhibitor, single point] | 
COc1ccc(-n2c(=S)[nH]c3cc(C(=O)Nc4cccc(C)c4)ccc3c2=O)cc1 |  | inactive: 7.77%
CC1CCC(NC(=O)c2ccc(NC(=O)c3ccc(=O)[nH]c3)cc2)CC1 (stereo not given) | inconclusive: 18.4 µM [activator, partial curve] | 
CCOc1c(Cl)cc(CNCc2ccccn2)cc1OC |  | inactive: 0%
COc1ccc2[nH]cc(/C=N/NS(=O)(=O)c3ccc(C)cc3)c2c1 |  | inactive: -29%
CCOC(=O)N1CCC2(CC1)CC(=O)c1c(ccc3oc(C(=O)O)c(C)c13)O2 |  | inactive: 0.499%
CCCc1[nH]nc2c1C(c1ccc(OC)cc1OC)C(C#N)=C(N)O2 (stereo not given) |  | inactive: -9.69%
Cc1nnc(SCc2nnc(-c3ccccc3Br)o2)s1 | inconclusive: 25.9 µM [activator, single point] | 
CCOc1ccc(-c2nc(C#N)c(NC3CC3)o2)cc1 | inconclusive: 23.1 µM [activator, partial curve] | 
Cc1cccc(COCC(Cc2ccccc2)N2CCN(C(=O)c3cc(Cl)cc(Cl)c3)CCC2=O)c1 (stereo not given) | inconclusive: 32.6 µM [inhibitor, single point] | 

One compound at a time (already shown):
NC(=O)c1nsc(C(=O)N(c2cccc(F)c2)C(C(=O)NCC2CCCO2)c2ccc3ncccc3c2)c1N (stereo not given) is listed with activity change, negative = inhibition: inactive: -1.12%
O=C(CC1CCCCC1)NCc1ccc(Cl)cc1 is listed with Potency: inconclusive: 35.5 µM [activator, partial curve, poor fit]
COc1cccc(/C(O)=C2/C(=O)C(=O)N(CCN(C)C)C2c2ccccn2)c1 (stereo not given) is listed with Potency: inconclusive: 23.1 µM [activator, single point]
CCOC(=O)Nc1nc(C)c(C(=O)c2ccc(Cl)cc2)s1 is listed with activity change, negative = inhibition: inactive: 7.54%
